Results taken from PMC9166295.
These are yes or no findings as the source states them, for the method shown. In cells and extracts the contact can be indirect. Tags and fused reporters may be left off the sequences shown.

Target: T1, GAPB fused to the N- or C-terminal fragment of luciferase (Arabidopsis) (UniProt P25857)
T1 sequence: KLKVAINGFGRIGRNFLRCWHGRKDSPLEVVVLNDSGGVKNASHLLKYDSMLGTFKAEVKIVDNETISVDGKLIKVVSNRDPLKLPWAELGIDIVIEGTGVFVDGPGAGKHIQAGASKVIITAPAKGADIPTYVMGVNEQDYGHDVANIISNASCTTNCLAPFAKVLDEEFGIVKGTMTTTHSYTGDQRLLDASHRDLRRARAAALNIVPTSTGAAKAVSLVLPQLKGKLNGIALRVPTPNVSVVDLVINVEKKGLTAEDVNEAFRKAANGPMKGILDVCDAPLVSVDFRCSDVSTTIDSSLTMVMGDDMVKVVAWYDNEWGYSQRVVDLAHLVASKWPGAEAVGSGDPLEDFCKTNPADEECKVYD
Assay: split reporter; split luciferase complementation in infiltrated N. benthamiana leaves; permutations of fusions to N- and C-terminal fragments of LUC; luminescence analysed after 2 days

binding: no binding
B1: tAPX fused to the N- or C-terminal fragment of luciferase (enzyme, UniProt Q42593 79-426)
chain: AASDAAQLISAKEDIKVLLRTKFCHPILVRLGWHDAGTYNKNIEEWPLRGGANGSLRFEAELKHAANAGLLNALKLIQPLKDKYPNISYADLFQLASATAIEEAGGPDIPMKYGRVDVVAPEQCPEEGRLPDAGPPSPADHLRDVFYRMGLDDKEIVALSGAHTLGRARPDRSGWGKPETKYTKTGPGEAGGQSWTVKWLKFDNSYFKDIKEKRDDDLLVLPTDAALFEDPSFKNYAEKYAEDVAAFFKDYAEAHAKLSNLGAKFDPPEGIVIENVPEKFVAAKYSTGKKELSDSMKKKIRAEYEAIGGSPDKPLPTNYFLNIIIAIGVLVLLSTLFGGNNNSDFSGF
